Results on four molecules are retold here after patent publication US20220073650A1.

Amino acid sequences for entries named in this document (tags omitted). A change or cut given only in a name is not applied to a line headed by its entry. Chains listed by the source or under a name are the forms on record and can include a tag or linker. Residues count along the entry.
recombinant N-terminal Huntingtin fragment recHTT610 (P42858, residues 1-610): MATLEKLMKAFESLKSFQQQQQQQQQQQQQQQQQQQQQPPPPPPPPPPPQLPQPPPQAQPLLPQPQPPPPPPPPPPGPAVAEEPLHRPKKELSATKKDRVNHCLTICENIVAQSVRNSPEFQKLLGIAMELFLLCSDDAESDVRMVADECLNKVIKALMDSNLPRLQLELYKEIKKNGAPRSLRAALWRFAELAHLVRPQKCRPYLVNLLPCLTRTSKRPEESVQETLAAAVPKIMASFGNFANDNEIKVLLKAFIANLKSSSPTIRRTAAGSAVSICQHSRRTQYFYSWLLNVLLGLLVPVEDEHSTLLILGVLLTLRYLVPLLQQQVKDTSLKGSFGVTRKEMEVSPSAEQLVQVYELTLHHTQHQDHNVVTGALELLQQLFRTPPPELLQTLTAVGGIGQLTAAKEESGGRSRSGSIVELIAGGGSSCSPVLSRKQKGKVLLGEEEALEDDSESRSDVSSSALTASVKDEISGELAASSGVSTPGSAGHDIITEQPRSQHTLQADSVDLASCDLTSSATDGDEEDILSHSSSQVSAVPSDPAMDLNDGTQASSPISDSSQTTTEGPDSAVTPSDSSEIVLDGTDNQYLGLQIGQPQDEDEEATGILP
recombinant mutant HTT with an extended 82 amino acids long poly Q stretch (mutHTT610 Q82) (P42858, form named): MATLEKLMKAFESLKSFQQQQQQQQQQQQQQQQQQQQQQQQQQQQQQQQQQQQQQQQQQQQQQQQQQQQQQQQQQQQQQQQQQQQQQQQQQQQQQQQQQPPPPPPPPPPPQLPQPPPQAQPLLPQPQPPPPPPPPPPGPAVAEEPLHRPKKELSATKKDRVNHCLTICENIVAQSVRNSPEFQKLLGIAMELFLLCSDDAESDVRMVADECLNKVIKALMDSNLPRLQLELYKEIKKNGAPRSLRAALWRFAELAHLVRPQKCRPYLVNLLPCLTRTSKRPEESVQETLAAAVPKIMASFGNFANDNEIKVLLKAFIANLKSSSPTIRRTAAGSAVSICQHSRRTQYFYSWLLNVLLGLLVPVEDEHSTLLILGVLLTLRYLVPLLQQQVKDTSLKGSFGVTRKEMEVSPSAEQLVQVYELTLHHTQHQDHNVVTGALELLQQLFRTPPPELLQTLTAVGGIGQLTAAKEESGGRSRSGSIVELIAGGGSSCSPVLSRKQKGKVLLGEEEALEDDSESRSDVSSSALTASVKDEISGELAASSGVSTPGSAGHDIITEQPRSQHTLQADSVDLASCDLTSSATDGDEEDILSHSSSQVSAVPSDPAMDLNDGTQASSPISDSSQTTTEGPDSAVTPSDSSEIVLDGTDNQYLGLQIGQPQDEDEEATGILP

Test [1] concerns the target recombinant N-terminal Huntingtin fragment recHTT610 (human) (UniProt P42858). In words: depletion from spiked human serum by bead-bound antibody.
Test [2] shares this target. In words: on-beads ELISA, capture from spiked human serum, anti V5 detection. Background: ELISA stands for enzyme-linked immunosorbent assay.
Test [3] has the same target. In words: depletion from spiked human serum by bead-bound antibody, read by capture ELISA.
For test [4] the target is unchanged. In words: protein capture ELISA, recombinant Huntingtin-specific signal against control extract.
For test [5] the target is unchanged. In words: rec HTT610 capture ELISA with Fab-containing supernatant.
The target is the same in test [6]. In words: recHTT610 capture ELISA.
For test [7], the target named is recombinant mutant HTT with an extended 82 amino acids long poly Q stretch (mutHTT610 Q82) (UniProt P42858). In words: ELISA on directly coated supernatant of mutHTT610 Q82-expressing HEK cells.

These are yes or no findings as the source states them, for the method shown. Some results given as binding are weak or reduced against the parent protein; the word gives no strength.

B1: monoclonal antibody C6-17 (antibody, V domains shown)
VH: EVQLQQSGPELVKPGASVKISCKTSGYTFTEYTMHWVKQSHGKSLEWIGGINPNNGGTRYNQKFKGKATLTVDRSSSTAYMELRSLTSEDSAVYYCASLDGRDYWGQGTTLTVSS
VL: DIVMSQSPSSLAVSAGEKVTMSCKSSQSLLNSRTRKNYLAWYQQKPGQSPKLLIYWASTRESGVPDRFTGSGSGTDFTLTISSVQAEDLAVYSCKQSYNLLTFGAGTKLELKR
For B1, the binding entry in test [1], in test [2], in test [3] and in test [4] was “binds” in each case.

B2: C6-17 FAB (Fab, V domains shown)
VH: EVQLQQSGPELVKPGASVKISCKTSGYTFTEYTMHWVKQSHGKSLEWIGGINPNNGGTRYNQKFKGKATLTVDRSSSTAYMELRSLTSEDSAVYYCASLDGRDYWGQGTTLTVSS
VL: DIVMSQSPSSLAVSAGEKVTMSCKSSQSLLNSRTRKNYLAWYQQKPGQSPKLLIYWASTRESGVPDRFTGSGSGTDFTLTISSVQAEDLAVYSCKQSYNLLTFGAGTKLELKR
For B2, the binding result in test [5] is recorded as “binds”.

B3: monoclonal antibody PRR13 (antibody, V domains shown)
VH: EVQLQQSAPELVKPGASVKMSCKASGYSFTDFYMKWVKQSHGKGLEWIGDIDPKNGDTFYNQKFKGRATLTVDKSSSTAYMQLNSLTTEDSAVYYCATYYGYTMDYWGQGTSVTVSS
VL: QIVLTQSPAIMSASLGERVTMTCTASSSVTSSYLHWYQQKPGSSPKLWIYSTSNLASGVPARFSGSGSGTSYSLTISSMEAEDAATYYCHQYRRPPRTFGGGTKLEIKR
For the molecule B3, the binding entry in test [6], in test [1], in test [2], in test [7] and in test [3] was “binds” throughout.

B4: PRR13 FAB (Fab, V domains shown)
VH: EVQLQQSAPELVKPGASVKMSCKASGYSFTDFYMKWVKQSHGKGLEWIGDIDPKNGDTFYNQKFKGRATLTVDKSSSTAYMQLNSLTTEDSAVYYCATYYGYTMDYWGQGTSVTVSS
VL: QIVLTQSPAIMSASLGERVTMTCTASSSVTSSYLHWYQQKPGSSPKLWIYSTSNLASGVPARFSGSGSGTSYSLTISSMEAEDAATYYCHQYRRPPRTFGGGTKLEIKR
As to B4, in test [5], the binding entry was “binds”.
